PubChem BioAssay AID1688 (National Center for Advancing Translational Sciences (NCATS), 2009)
The campaign covered roughly 220,000 compounds. About 2,400 (1.1%) were called active. The shares of active, inactive and inconclusive entries below differ from those in the screen. The call rests on the fitted dose curve; in most records, active means well fitted inhibition curve with a large enough effect; inconclusive means small, poorly fitted or top-dose-only effect, or effect the other way; inactive means no such curve, though single readings can be large or run the other way. Where the call is inconclusive, the potency comes from a doubtful curve fit.

assay: qHTS Multiplex Assay to Identify Dual Action Probes in a Cell Model of Huntington: Aggregate Formation (GFP); details: PC12 HttQ103-GFP aggregates, Acumen cytometry, 40 h; activity change, negative = inhibition: at 46.1 µM (top of the series) unless noted; further: nearly all actives have a fitted effect of over 60% in size
Summary of the method: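 Inducible Q103 Huntingtin exon 1–GFP PC12 line, 1500 cells/well in phenol red free DMEM with 5% equine and 5% calf serum. Tebufenozide 100 nM induced expression; compounds titrated; aggregates quantified by cytometry.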
On the % scale 0 is the no-effect control and ±100 the full control effect; potency means the concentration at half of the fitted maximal effect.

Q: For `CCC(Sc1nnc(-c2ccc(C)c(Cl)c2)n1CC)C(=O)Nc1nccs1` (stereo not given), which Potency is on record?
A: Its Potency is inconclusive: 12.6 µM [inhibitor, single point].

Q: For `CCOC(=O)c1c(NC(=O)Cn2nnc(-c3ccc(Cl)cc3)n2)sc(C)c1C`, which “activity change, negative = inhibition” value is on record?
A: Its value is inactive: -2.75%.

Q: With `CC(C)(C)c1cccc(OCCCSc2ncccn2)c1` as the compound, how does the Potency read?
A: Its Potency is inconclusive: 35.5 µM [inhibitor, single point].

Q: With `CC1=CN2C(=N)/C(=C/c3ccc([N+](=O)[O-])o3)C(=O)N=C2S1` as the compound, how does the Potency read?
A: The Potency was inconclusive: 35.5 µM [inhibitor, single point].

Q: For `CC1(C)CC(NCc2ccc3c(c2)OCO3)CCO1` (stereo not given), which Potency is on record?
A: The Potency was inconclusive: 1.12 µM [activator, single point].

Q: Which activity change, negative = inhibition does the source give for `O=C(Oc1ccc(C(=S)N2CCCCC2)cc1)c1ccccc1` here?
A: The activity change, negative = inhibition was inactive: -13.8% [at 9.22 µM].

Q: With `Cc1[nH]c(=O)[nH]c(=O)c1NS(=O)(=O)c1ccccc1` as the compound, how does the “activity change, negative = inhibition” value read?
A: The value was inactive: -12.7%.

Q: With `CCOc1ccc(-n2c(Cc3cc(=O)[nH]c(=O)[nH]3)nnc2SC(C)C)cc1` as the compound, how does the Potency read?
A: The Potency was inconclusive: 20 µM [activator, single point].

Q: For `O=C(/C=C/Sc1ccccc1)c1ccccc1`, which Potency is on record?
A: The Potency was inconclusive: 25.1 µM [inhibitor, single point].

Q: For `COC(=O)C1=C(CSc2nc3ccccc3o2)NC(=O)NC1c1cc(C)ccc1C` (stereo not given), which Potency is on record?
A: Its Potency is inconclusive: 0.316 µM [inhibitor, partial curve].

Q: With `Oc1ccc(CN2CCCc3ccccc32)c2cccnc12` as the compound, how does the Potency read?
A: The Potency was inconclusive: 35.5 µM [inhibitor, single point].

Q: Which Potency does the source give for `CC(=O)C(C(C)=O)c1c(Cl)c(O)c(O)c2c(C(=O)c3ccccc3)coc12` here?
A: Its Potency is inconclusive: 20 µM [inhibitor, partial curve].

Q: With `Cc1onc(-c2c(F)cccc2Cl)c1C(=O)Nc1nc2c(s1)CCCC2` as the compound, how does the Potency read?
A: Its Potency is inconclusive: 25.1 µM [inhibitor, single point].

Q: Which “activity change, negative = inhibition” value does the source give for `O=C(c1ccc(COc2ccccc2Cl)o1)N1CCCC1` here?
A: Its value is inactive: -14%.

Q: For `CC(=O)Cc1nsc(NC(=O)c2ccc(-c3cc(C(F)(F)F)ccc3Cl)o2)n1`, which Potency is on record?
A: Its Potency is active: 2 µM.

Q: With `Cc1cc2cc(C=C(C#N)C#N)c(Cl)nc2cc1C` as the compound, how does the Potency read?
A: Its Potency is inconclusive: 35.5 µM [activator, single point].

Q: For `O=C(NC(=S)Nc1nc(-c2cccc3ccccc23)cs1)c1cc2ccccc2o1`, which Potency is on record?
A: Its Potency is inconclusive: 5.62 µM [activator, single point].

Q: For `Cn1nc(-c2ccc(Cl)cc2)c2cc(C(=O)NCCN3CCOCC3)sc21`, which Potency is on record?
A: The Potency was inconclusive: 11.2 µM [inhibitor, single point].

Q: With `Cc1ccc2c(c1)CCCN2C(=O)Nc1ccc2c(c1)OCO2` as the compound, how does the “activity change, negative = inhibition” value read?
A: The value was inactive: 4.12%.

Q: Which “activity change, negative = inhibition” value does the source give for `Cc1ccc(S(=O)(=O)Nc2cc(=O)[nH]c(SCc3ccc(Cl)cc3)n2)cc1` here?
A: The value was inactive: 4.38%.

Q: With `O=C(Nc1cccc(OC(F)(F)F)c1)c1ccc(Br)o1` as the compound, how does the Potency read?
A: Its Potency is inconclusive: 10 µM [inhibitor, single point].

Q: For `Cc1ccc(C(=O)C[n+]2cc(Br)cc(Br)c2)cc1`, which activity change, negative = inhibition is on record?
A: Its activity change, negative = inhibition is inactive: -16.1% [at 9.22 µM].

Q: For `Cc1cccc(-c2nnnn2-c2cccc(C)c2)c1`, which “activity change, negative = inhibition” value is on record?
A: Its value is inactive: 6.32%.

Q: For `Cc1cc(C)c(S(=O)(=O)/N=C2/C=C(Sc3ncn[nH]3)C(=O)c3ccccc32)cc1C`, which Potency is on record?
A: The Potency was active: 3.55 µM.

Q: For `CC1=CC(C)(C)Nc2ccc(OC(=O)c3ccco3)cc21`, which Potency is on record?
A: The Potency was inconclusive: 3.55 µM [activator, single point].

Q: For `CCOC(=O)c1sc(C)nc1C1CCN(C(=O)OCC)CC1`, which Potency is on record?
A: Its Potency is inconclusive: 0.501 µM [inhibitor, full curve, poor fit].

Q: With `COc1ccc(S(=O)(=O)n2nc(OC(=O)C3CCCCC3)cc2N)cc1` as the compound, how does the Potency read?
A: The Potency was inconclusive: 15.8 µM [activator, single point].

Q: With `Cc1nnc(SCc2ccc(Cl)cc2Cl)[nH]c1=O` as the compound, how does the “activity change, negative = inhibition” value read?
A: Its value is inactive: -13.3%.

Q: For `COc1ccc(CCNC(=S)Nc2ccc(C)cc2C)cc1`, which Potency is on record?
A: Its Potency is inconclusive: 3.55 µM [activator, single point].

Q: Which Potency does the source give for `Cc1ccc(-c2noc(CSc3nnc(CCc4ccccc4)n3-c3ccccc3)n2)cc1` here?
A: The Potency was inconclusive: 35.5 µM [inhibitor, single point].

Q: Which Potency does the source give for `CCn1c(=O)c(C(=O)NNS(=O)(=O)c2ccc(C)cc2)c(O)c2ccccc21` here?
A: Its Potency is inconclusive: 35.5 µM [inhibitor, single point].

Q: Which Potency does the source give for `O=C(Nc1ncc(Cc2cc(Cl)ccc2Cl)s1)c1ccc([N+](=O)[O-])cc1` here?
A: Its Potency is inconclusive: 10 µM [inhibitor, partial curve].

Q: For `CCN(Cc1ccccc1)C(=O)COc1cc(=O)n(CC)c2ccccc12`, which activity change, negative = inhibition is on record?
A: The activity change, negative = inhibition was inactive: 15.1% [at 9.22 µM].

Q: For `CCNC(=S)N(CCc1c(C)[nH]c2ccc(C)cc12)Cc1cccs1`, which Potency is on record?
A: Its Potency is inconclusive: 20 µM [inhibitor, single point].

Q: With `Cc1cc2c(N3CCCCC3C)ncnc2s1` (stereo not given) as the compound, how does the Potency read?
A: The Potency was inconclusive: 17.8 µM [inhibitor, single point].

Q: Which Potency does the source give for `C/C(=N\NC(=O)C1CCCN(S(=O)(=O)c2ccccc2)C1)c1ccccn1` (stereo not given) here?
A: Its Potency is inconclusive: 14.1 µM [inhibitor, single point].

Q: For `CN=C(Nc1ccc(C(=O)OC)cc1)SC1CC(=O)N(c2ccccc2F)C1=O` (stereo not given), which Potency is on record?
A: Its Potency is inconclusive: 0.562 µM [inhibitor, full curve, poor fit].

Q: For `CCN(C(=O)COC(=O)c1ccc(S(=O)(=O)N2CCCc3ccccc32)cc1)C1CCS(=O)(=O)C1` (stereo not given), which “activity change, negative = inhibition” value is on record?
A: Its value is inactive: 11.6%.

Q: With `COc1ccc(C2CC(=O)C(C=NCCN3CCN(C(=S)Nc4ccccc4)CC3)=C(O)C2)cc1OC` (stereo not given) as the compound, how does the “activity change, negative = inhibition” value read?
A: The value was inactive: -12%.

Q: With `CCc1ccc(-n2c(=O)c3ccccc3n(CC(=O)C(C)(C)C)c2=O)cc1` as the compound, how does the activity change, negative = inhibition read?
A: Its activity change, negative = inhibition is inactive: -12.2% [at 9.22 µM].

Q: Which Potency does the source give for `O=C1C=CCC(/C=C/c2ccccc2)O1` (stereo not given) here?
A: The Potency was active: 10 µM.

Q: With `CC1CN(c2nc3c(c(=O)n(Cc4ccc(Cl)c(Cl)c4)c(=O)n3C)n2C)CC(C)O1` (stereo not given) as the compound, how does the Potency read?
A: The Potency was inconclusive: 25.1 µM [inhibitor, single point].

Q: Which “activity change, negative = inhibition” value does the source give for `O=C(Nc1nc2ccccc2n1Cc1ccc(Cl)cc1)c1ccco1` here?
A: The value was inactive: -15.7%.

Q: For `CN(C)CCCC(C)(O)C(Cc1ccccc1)c1ccccc1` (stereo not given), which Potency is on record?
A: The Potency was inconclusive: 3.55 µM [inhibitor, partial curve].

Q: Which Potency does the source give for `N=c1c2c(ncn1Cc1ccco1)Oc1ccc3ccccc3c1C2c1ccccc1` (stereo not given) here?
A: Its Potency is inconclusive: 3.55 µM [inhibitor, single point].

Q: For `NC(=O)CSc1nnc(-c2ccc([N+](=O)[O-])cc2)o1`, which “activity change, negative = inhibition” value is on record?
A: Its value is inactive: -8.56%.

Q: With `COc1cc(/C=C2\SC(=N)N(c3ccc(F)cc3)C2=O)ccc1O` as the compound, how does the Potency read?
A: Its Potency is inconclusive: 6.31 µM [inhibitor, full curve].

Q: Which Potency does the source give for `COC(=O)C1C(=O)c2c([nH]c(C(=O)OC3CCCCCC3)c2C)CC1C` (stereo not given) here?
A: The Potency was active: 0.001 µM.

Q: For `CCOC(=O)C1(Cc2cccc(OC)c2)CCN(Cc2ccccc2OC)CC1`, which Potency is on record?
A: Its Potency is inconclusive: 2.24 µM [inhibitor, partial curve, poor fit].

Q: For `O=C(CN(C(=O)c1ccc(Cl)cc1)C1CCCCC1)Nc1ccc(Cl)c([N+](=O)[O-])c1`, which Potency is on record?
A: The Potency was active: 12.6 µM.

Q: Which Potency does the source give for `COc1cccc(NC(=O)c2ccc(NCCCN3CC(C)CC(C)C3)c([N+](=O)[O-])c2)c1` (stereo not given) here?
A: The Potency was inconclusive: 22.4 µM [inhibitor, partial curve].

Q: With `O=C(CSc1nc2ccc([N+](=O)[O-])cc2[nH]1)NC1CCCCCC1` as the compound, how does the Potency read?
A: The Potency was inconclusive: 11.2 µM [inhibitor, single point].

Q: For `O=C(Nc1cccc(NC(=O)c2cccs2)c1)c1cccnc1`, which Potency is on record?
A: The Potency was inconclusive: 20 µM [inhibitor, partial curve].

Q: With `CCCCCCc1cc2cc(S(=O)(=O)c3ccc(Cl)cc3)c(=O)oc2cc1O` as the compound, how does the Potency read?
A: Its Potency is inconclusive: 3.55 µM [inhibitor, full curve].

Q: For `O=C(CO/N=C/c1ccccc1OC(F)F)NC1CCCCC1`, which “activity change, negative = inhibition” value is on record?
A: Its value is inactive: -0.603%.

Q: Which Potency does the source give for `CN(C)c1ccnc2sc(C(=O)c3ccccc3)c(N)c12` here?
A: The Potency was inconclusive: 10 µM [inhibitor, partial curve].

Q: With `CCSC1=C(C#N)C2(CCCCC2)C(C#N)=C(N)N1` as the compound, how does the Potency read?
A: The Potency was inconclusive: 14.1 µM [inhibitor, single point].

Q: With `COc1ccc(CCNC(=O)CN2CCN(c3cccc(C(F)(F)F)c3)CC2)cc1` as the compound, how does the “activity change, negative = inhibition” value read?
A: Its value is inactive: -7.01%.

Q: For `Cn1cccc1/C=N/NC(=O)c1ccc(OC(F)(F)C(F)F)cc1`, which Potency is on record?
A: The Potency was inconclusive: 35.5 µM [inhibitor, single point].

Q: With `OC1OC[C@@H](O)[C@H](O)[C@@H]1O` (stereo not given in full) as the compound, how does the “activity change, negative = inhibition” value read?
A: Its value is inactive: 2.41%.

Q: Which Potency does the source give for `CCOc1ccc(NS(=O)(=O)c2cc(NC(=O)c3cccc(C)c3)ccc2Cl)cc1` here?
A: The Potency was inconclusive: 35.5 µM [inhibitor, single point].

Q: With `Cc1ccc(C(=O)CCNc2ccc(Cl)cc2)o1` as the compound, how does the Potency read?
A: Its Potency is inconclusive: 3.16 µM [activator, partial curve].

Q: With `CC(C)(C)c1nnc2sc(SC/C(O)=C(\C#N)c3nc4ccccc4[nH]3)nn2c1=O` as the compound, how does the “activity change, negative = inhibition” value read?
A: The value was inactive: 14.7%.

Q: For `CCCc1cc(=O)[nH]c(Nc2ccc(N3CCCCC3)cc2)n1`, which Potency is on record?
A: The Potency was inconclusive: 28.2 µM [inhibitor, single point].

Q: Which Potency does the source give for `COc1ccc(C2(O)CC3CCC(C2)N3c2nc(C)cc(C)c2C#N)cc1` (stereo not given) here?
A: The Potency was inconclusive: 11.2 µM [inhibitor, single point].

Q: Which Potency does the source give for `O=C(Nc1nc(-c2ccc(Cl)cc2Cl)cs1)c1ccc(OCC2CCCO2)cc1` (stereo not given) here?
A: The Potency was inconclusive: 7.08 µM [inhibitor, full curve].

Q: Which “activity change, negative = inhibition” value does the source give for `O=C(NCc1ccccc1)c1ccc2c(=O)[nH]c3c(C(=O)NCC4CCCO4)sc(=S)n3c2c1` (stereo not given) here?
A: The value was inactive: 20.8%.

Q: With `COc1ccc(-c2c[n+]3c4n2CCCCC4=C(c2ccccc2)C3)cc1` as the compound, how does the Potency read?
A: Its Potency is inconclusive: 35.5 µM [inhibitor, single point].

Q: For `CC(Nc1cc(N2CCN(C(=O)C(C)(C)C)CC2)ccc1[N+](=O)[O-])c1ccccc1` (stereo not given), which Potency is on record?
A: The Potency was inconclusive: 35.5 µM [inhibitor, single point].

Q: Which Potency does the source give for `COc1cccc(NS(=O)(=O)c2c(C)cc(C)cc2C)c1` here?
A: Its Potency is inconclusive: 35.5 µM [inhibitor, single point].
